Measurements as given in article doi:10.1101/2023.05.16.540868 (bioRxiv, 2023).
These are yes or no findings as the source states them, for the method shown. Some binding calls cover weakened binding; strength is not graded here.

Target: T1, full-length SPD-5, dephosphorylated (incubated with kinase dead PLK-1) (C. elegans), P91349
T1 chain: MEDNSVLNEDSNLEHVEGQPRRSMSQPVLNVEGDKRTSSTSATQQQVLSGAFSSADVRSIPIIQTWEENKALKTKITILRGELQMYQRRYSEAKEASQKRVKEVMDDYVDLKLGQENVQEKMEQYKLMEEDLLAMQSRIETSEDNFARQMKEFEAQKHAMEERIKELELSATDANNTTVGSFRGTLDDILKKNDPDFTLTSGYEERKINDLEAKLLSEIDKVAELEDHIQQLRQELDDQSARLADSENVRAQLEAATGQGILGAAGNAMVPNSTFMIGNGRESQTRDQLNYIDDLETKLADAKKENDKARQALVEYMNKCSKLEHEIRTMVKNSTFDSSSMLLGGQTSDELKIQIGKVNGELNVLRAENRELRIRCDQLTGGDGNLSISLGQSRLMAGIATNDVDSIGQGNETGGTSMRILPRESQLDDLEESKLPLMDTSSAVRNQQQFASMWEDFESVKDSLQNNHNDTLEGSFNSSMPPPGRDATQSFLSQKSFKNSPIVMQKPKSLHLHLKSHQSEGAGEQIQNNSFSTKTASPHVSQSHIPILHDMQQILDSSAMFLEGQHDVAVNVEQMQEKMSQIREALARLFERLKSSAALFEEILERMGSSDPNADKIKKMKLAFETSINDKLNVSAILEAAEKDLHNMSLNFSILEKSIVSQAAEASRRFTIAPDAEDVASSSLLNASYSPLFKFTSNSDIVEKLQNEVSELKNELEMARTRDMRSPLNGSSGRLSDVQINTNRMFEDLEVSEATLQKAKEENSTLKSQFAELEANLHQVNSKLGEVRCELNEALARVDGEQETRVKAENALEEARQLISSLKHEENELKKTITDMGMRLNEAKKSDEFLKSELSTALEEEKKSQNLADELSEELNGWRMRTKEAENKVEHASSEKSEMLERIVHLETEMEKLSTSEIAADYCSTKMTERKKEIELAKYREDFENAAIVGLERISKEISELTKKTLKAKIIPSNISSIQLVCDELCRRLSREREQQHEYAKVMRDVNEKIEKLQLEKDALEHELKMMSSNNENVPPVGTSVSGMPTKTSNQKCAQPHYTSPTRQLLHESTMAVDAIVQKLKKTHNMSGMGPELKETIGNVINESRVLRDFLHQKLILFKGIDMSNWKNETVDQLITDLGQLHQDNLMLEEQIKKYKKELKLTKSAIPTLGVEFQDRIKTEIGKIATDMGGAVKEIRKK
Assay: cross-linking
Conditions: remark: other sources report otherwise

binding: binds
B1: full-length SPD-5, dephosphorylated (incubated with kinase dead PLK-1), P91349 1-1198 (protein)
chain: T1 chain
